From PubChem BioAssay AID485314 (National Center for Advancing Translational Sciences (NCATS), 2010)
Screen size: about 340,000 compounds; about 4,500 (1.3%) were called active. Inconclusive results, whose numbers are uncertain, are shown with a selection of clear calls. Calls follow the shape of the dose curve; as a rule, active = well fitted inhibition curve with a large enough effect; inconclusive = small, poorly fitted or top-dose-only effect, or another doubt; inactive = no such curve, though single readings can be large or run the other way. Potencies of inconclusive entries are doubtful fits and often do not repeat.

These compounds were tested against DNA polymerase beta (Homo sapiens) (UniProt P06746) (assay: qHTS Assay for Inhibitors of DNA Polymerase Beta). Settings: Pol beta primer extension/strand displacement, fluorescence kinetic; activity change, negative = inhibition: at 114 µM (top of the series).
Method in brief: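 Reaction started by 50 nM substrate onto compound-treated Pol beta (10 nM, 15 min preincubation, room temperature); plates read at 0 min and 10 min. Normalized concentration-effect data fitted by four-parameter Hill equation.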
% is scaled to controls: 0 for no effect and ±100 for the full control effect; potency is read from the fitted curve at half-maximal effect.

SMILES | Potency | activity change, negative = inhibition
O=C(CSc1nnc2c3ccccc3c3ccccc3c2n1)Nc1ccccc1 | inconclusive: 28.2 µM [inhibitor, partial curve] | 
CCC(=O)N1CCc2cc(S(=O)(=O)NC(Cc3ccccc3)C(=O)Nc3ccc(C)cc3)ccc21 (configuration not stated) | inconclusive: 89.1 µM [inhibitor, single point] | 
OCCC1CN(Cc2cnc(-c3ccc(Cl)cc3)nc2)CCN1C1CCCCC1 (configuration not stated) | inconclusive: 79.4 µM [inhibitor, single point] | 
Cc1ccc(CN(C)C(=O)C2CCC(=O)N(CCc3ccccc3)C2)o1 (configuration not stated) |  | inactive: 24.9%
CCc1cccc(NC(=O)c2cccc3c2C(=O)N(CC2CCCO2)C3)c1 (configuration not stated) | inconclusive: 89.1 µM [inhibitor, single point] | 
COc1cccc(/C=N/NC(=O)c2cc3c(OC)c(OC)ccc3[nH]2)c1OC | inconclusive: 11.2 µM [inhibitor, partial curve, poor fit] | 
COc1ccc(Br)cc1S(=O)(=O)N(CC(=O)N1CCN(C)CC1)c1ccccc1 |  | inactive: -15.1%
COc1ccc([C@]23Cc4cc(C#N)ccc4[C@H](O2)c2c(cc(C)n(Cc4ccccc4)c2=O)O3)cc1 |  | inactive: 22.1% [at 22.9 µM]
COc1ccc(NC(=O)c2cc3c(s2)-c2c(C)cccc2OC3)c(OC)c1 |  | inactive: -2.37%
c1ccc(-c2ccccn2)nc1 | inconclusive: 89.1 µM [inhibitor, single point] | 
COc1cccc2cc(C(=O)CS(=O)(=O)c3ccc(C(C)(C)C)cc3)c(=O)oc12 | inconclusive: 0.141 µM [inhibitor, full curve, poor fit] | 
Cc1cc(C)nc(NC(=O)CSc2nc3cc(Cl)ccc3s2)n1 | inconclusive: 35.5 µM [inhibitor, partial curve] | 
COc1ccc(NC(=O)CN(Cc2ccccc2)S(=O)(=O)c2ccc(C)cc2)cc1Cl |  | inactive: -4.51%
CCc1ccccc1NS(=O)(=O)c1ccc(OC)c2ncccc12 | inactive | 
Cc1ccc(NC(=O)c2cccc(NC(=O)/C=C/c3ccco3)c2)cc1C | inconclusive: 39.8 µM [inhibitor, partial curve] | 
COC(=O)CCSc1nc2sc3c(c2c(=O)n1Cc1ccccc1)CCC(C(C)(C)C)C3 (configuration not stated) |  | inconclusive: -30.2% [inhibitor]
CCC(NC(=O)CCc1c(C)c2cc3c(C)c(C)oc3cc2oc1=O)C(=O)N[C@@H](Cc1ccccc1)C(=O)O (some centres not stated) | active: 31.6 µM | 
CC(/C=C/C=C/c1ccccc1)=N/NC(=O)CNc1ccc(C)cc1 | inconclusive: 89.1 µM [inhibitor, single point] | 
Cc1cc(NS(=O)(=O)c2ccc(NC(=O)c3cc(-c4ccccc4Cl)nc4ccccc34)cc2)no1 | inconclusive: 89.1 µM [inhibitor, single point] | 
O=C(COC(=O)CN1C(=O)c2ccccc2C1=O)Nc1ncc(Cl)cc1Cl | inconclusive: 70.8 µM [inhibitor, single point] | 
CCCN(C(=O)c1cc2c(s1)-c1ccccc1OC2)c1ccccc1F | inconclusive: 56.2 µM [inhibitor, partial curve, poor fit] | 

SMILES | Potency | activity change, negative = inhibition
O=C(CC1N=C2c3ccccc3N=C(SCc3ccc(Cl)cc3)N2C1=O)NCc1ccco1 (configuration not stated) | inconclusive: 15.8 µM [inhibitor, full curve] | 
Nc1ccn([C@@H]2O[C@H](CO)[C@@H](O)C2O)c(=O)n1 (some centres not stated) |  | inactive: -0.937%
CCOC(=O)C12CNC(=O)C(C(=O)OCC)(CNC1=O)C2 | inconclusive: 17.8 µM [inhibitor, full curve, poor fit] | 
Cc1c(Cl)cccc1NC(=S)NCc1ccco1 | inconclusive: 79.4 µM [inhibitor, single point] | 
CCc1ccc(C(=O)c2cn(CC(=O)Nc3ccc(F)c(F)c3)c3cc(OC)c(OC)cc3c2=O)cc1 | inconclusive: 39.8 µM [inhibitor, full curve] | 
Cc1ccc(NC(=O)C2C3CCC(O3)C2C(=O)O)c(Br)c1 (configuration not stated) | inconclusive: 11.2 µM [inhibitor, partial curve, poor fit] | 
Cc1c(NC(=O)c2cc(-c3ccc(Cl)s3)nc3ccccc23)c(=O)n(-c2ccccc2)n1C | inconclusive: 15.8 µM [inhibitor, partial curve] | 
CCCC(=O)Nc1cc(C)c(O)c(-c2nc3ncccc3o2)c1 |  | inactive: 2.64%
Cc1cc2oc(=O)cc(CN3CCOCC3)c2cc1C | inconclusive: 89.1 µM [inhibitor, single point] | 
O=C(COC(=O)Cc1ccc(Br)cc1)NC12CC3CC(CC(C3)C1)C2 | inconclusive: 0.112 µM [inhibitor, full curve, poor fit] | 
O=C(Nc1ccccc1C(=O)O)/C(=C/c1ccc([N+](=O)[O-])cc1)NC(=O)c1ccc(Br)o1 | active: 28.2 µM | 
Cc1cc(C(=O)C(C)OC(=O)C2=NNC(=O)CC2)c(C)n1-c1ccc(OC(F)F)cc1 (configuration not stated) | inconclusive: 7.94 µM [inhibitor, full curve, poor fit] | 
O=C(CN1C2=NCCN2c2ccccc21)c1ccco1 | inconclusive: 100 µM [inhibitor, single point] | 
COc1cc(OC)c(NC(=O)CN2C(=O)CCn3nc(-c4cccn4C)cc32)cc1Cl |  | inactive: 9.03%
CCOc1ccc(NC(=O)C(=O)NCCc2csc(-c3ccc(F)cc3)n2)cc1 | inconclusive: 2.24 µM [inhibitor, full curve, poor fit] | 
C=CCn1c(N)c(C(=O)OCCC)c2nc3ccccc3nc21 |  | inactive: 21.8%
c1ccc(-n2ncc3c(NC4CCCC4)ncnc32)cc1 |  | inactive: 8.64%
Oc1ccc(Cn2cc[nH]c2=S)cc1 | inconclusive: 35.5 µM [inhibitor, single point] | 
CCOc1cc(/C=C/C(=O)c2ccc(O)cc2)ccc1OCC(=O)N(C)C | inconclusive: 7.94 µM [inhibitor, partial curve, poor fit] | 
COc1ccc(NS(=O)(=O)c2cc3[nH]c(=O)c(=O)[nH]c3cc2C)cc1Cl |  | inactive: 1.58%
Cc1ccc2oc(-c3ccccc3C(=O)O)cc(=O)c2c1 | inconclusive: 39.8 µM [inhibitor, single point] | 

Quoted at random: 2 compounds from above
SMILES | Potency | activity change, negative = inhibition
Cc1cc2oc(=O)cc(CN3CCOCC3)c2cc1C | inconclusive: 89.1 µM [inhibitor, single point] | 
CCCC(=O)Nc1cc(C)c(O)c(-c2nc3ncccc3o2)c1 |  | inactive: 2.64%
